These are yes or no findings as the source states them, for the method shown. Binding seen in cells or lysates may run through a third protein. Some results given as binding are weak or reduced against the parent protein; the word gives no strength.
Target: T1, endogenous NXF1 in mouse neuronal N2A cells (mouse (endogenous in mouse neuronal N2A cells)) (UniProt Q99JX7)
T1 sequence (looked up): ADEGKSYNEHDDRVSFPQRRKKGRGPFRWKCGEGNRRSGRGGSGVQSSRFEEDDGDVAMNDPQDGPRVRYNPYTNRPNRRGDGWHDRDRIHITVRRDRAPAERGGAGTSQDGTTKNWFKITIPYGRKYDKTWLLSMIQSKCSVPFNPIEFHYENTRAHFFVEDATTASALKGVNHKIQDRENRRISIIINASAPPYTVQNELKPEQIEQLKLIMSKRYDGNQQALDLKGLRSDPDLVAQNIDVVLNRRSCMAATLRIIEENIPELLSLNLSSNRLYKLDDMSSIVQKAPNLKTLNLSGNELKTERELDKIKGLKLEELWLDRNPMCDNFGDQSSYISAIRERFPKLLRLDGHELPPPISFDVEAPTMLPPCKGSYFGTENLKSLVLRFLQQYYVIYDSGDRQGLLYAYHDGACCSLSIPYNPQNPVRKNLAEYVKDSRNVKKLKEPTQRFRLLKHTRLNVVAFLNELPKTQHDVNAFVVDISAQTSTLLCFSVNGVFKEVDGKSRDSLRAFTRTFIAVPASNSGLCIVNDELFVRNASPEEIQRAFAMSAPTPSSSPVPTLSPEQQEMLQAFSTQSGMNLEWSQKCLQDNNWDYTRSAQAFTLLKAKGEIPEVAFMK
Experiment: anti-FLAG co-immunoprecipitation from transfected N2A cell extracts, anti-NXF1 western blot

Amino acid sequences for entries named in this document (tags omitted). A change or cut given only in a name is not applied to a line headed by its entry.
UniProt Q07955: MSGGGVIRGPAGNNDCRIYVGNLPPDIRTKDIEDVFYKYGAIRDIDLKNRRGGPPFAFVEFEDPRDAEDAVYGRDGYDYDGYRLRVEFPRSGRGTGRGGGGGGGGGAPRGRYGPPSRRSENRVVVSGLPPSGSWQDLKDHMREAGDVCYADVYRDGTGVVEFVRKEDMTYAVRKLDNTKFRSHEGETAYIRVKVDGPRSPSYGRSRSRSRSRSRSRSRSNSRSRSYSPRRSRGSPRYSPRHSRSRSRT

Substance | binding
FLAG-tagged SRSF1 11-196 double R117,118A mutant (SRSF1-m2) (from UniProt Q07955 11-196) | binds
FLAG-tagged SRSF1 aa11-196 wild type (from UniProt Q07955 11-196) | binds

From patent US20190194660A1
